# Drug screen on melanoma cell lines: apoptosis marker

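The test systems are human melanoma cell lines, treated with a pair of drugs for 72 h and then stained and imaged. The read-out is the fraction of cleaved-PARP-positive nuclei, in % of that fraction in the DMSO control; 200 means twice the control level of this apoptosis marker. Concentrations were fixed for each drug; these are the higher of two levels. These are primary screening values without error estimates. Basal and induced levels differ widely between cell lines.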
This is part of the screen, not chosen by result.

Compounds and concentrations:
FH535, 5 µM: Cc1cc([N+](=O)[O-])ccc1NS(=O)(=O)c1cc(Cl)ccc1Cl
NVP-TAE684, 0.4 µM: COc1cc(N2CCC(N3CCN(C)CC3)CC2)ccc1Nc1ncc(Cl)c(Nc2ccccc2S(=O)(=O)C(C)C)n1
OSI-906, 2 µM: C[C@]1(O)C[C@@H](c2nc(-c3ccc4ccc(-c5ccccc5)nc4c3)c3c(N)nccn32)C1
AZD7762, 0.1 µM: NC(=O)Nc1cc(-c2cccc(F)c2)sc1C(=O)N[C@H]1CCCNC1
ABT-263, 2 µM: CC1(C)CCC(c2ccc(Cl)cc2)=C(CN2CCN(c3ccc(C(=O)NS(=O)(=O)c4ccc(N[C@H](CCN5CCOCC5)CSc5ccccc5)c(S(=O)(=O)C(F)(F)F)c4)cc3)CC2)C1
SNS-032, 0.05 µM: CC(C)(C)c1cnc(CSc2cnc(NC(=O)C3CCNCC3)s2)o1
dorsomorphin, 2 µM: c1cc(-c2cnn3cc(-c4ccc(OCCN5CCCCC5)cc4)cnc23)ccn1

For ABT-263 + dorsomorphin the values were IPC-298: 85.7; WM3619: 121; MEL-HO: 55.0; WM451Lu: 108; LB2518-MEL: 441; G-361: 256. Results for dorsomorphin + FH535 are IPC-298: 86.3; WM3619: 280; MEL-HO: 79.6; WM451Lu: 100; LB2518-MEL: 139; G-361: 378. With AZD7762 + dorsomorphin the screen read IPC-298: 93.8; WM3619: 511; MEL-HO: 26.9; WM451Lu: 77.2; LB2518-MEL: 78.4; G-361: 111. Results for SNS-032 + OSI-906 are IPC-298: 37.2; WM3619: 304; MEL-HO: 68.3; WM451Lu: 171; LB2518-MEL: 257; G-361: 211.

Results for NVP-TAE684 + SNS-032 are IPC-298: 190; WM3619: 135; MEL-HO: 53.5; WM451Lu: 186; LB2518-MEL: 98.4; G-361: 135. Results for SNS-032 + ABT-263 are IPC-298: 98.3; WM3619: 200; MEL-HO: 192; WM451Lu: 702; LB2518-MEL: 384; G-361: 324. For SNS-032 + dorsomorphin the values were IPC-298: 116; WM3619: 372; MEL-HO: 111; WM451Lu: 7230; LB2518-MEL: 525; G-361: 543. For FH535 + NVP-TAE684 the values were IPC-298: 38.3; WM3619: 144; MEL-HO: 345; WM451Lu: 64.6; LB2518-MEL: 44.5; G-361: 633.

NVP-TAE684 + OSI-906 gave IPC-298: 36.0; WM3619: 93.9; MEL-HO: 89.1; WM451Lu: 409; LB2518-MEL: 24.5; G-361: 129. Results for OSI-906 + FH535 are IPC-298: 145; WM3619: 165; MEL-HO: 123; WM451Lu: 225; LB2518-MEL: 201; G-361: 440. For AZD7762 + OSI-906 the values were IPC-298: 288; WM3619: 403; MEL-HO: 88.5; WM451Lu: 316; LB2518-MEL: 360; G-361: 58.7. With SNS-032 + FH535 the screen read IPC-298: 75.9; WM3619: 194; MEL-HO: 281; WM451Lu: 100; LB2518-MEL: 108; G-361: 366.

For NVP-TAE684 + AZD7762 the values were IPC-298: 99.5; WM3619: 641; MEL-HO: 82.3; WM451Lu: 284; LB2518-MEL: 172; G-361: 74.2. With OSI-906 + ABT-263 the screen read IPC-298: 58.9; WM3619: 119; MEL-HO: 177; WM451Lu: 109; LB2518-MEL: 177; G-361: 143. AZD7762 + FH535 gave IPC-298: 74.2; WM3619: 646; MEL-HO: 77.5; WM451Lu: 101; LB2518-MEL: 116; G-361: 628. Results for dorsomorphin + NVP-TAE684 are IPC-298: 97.2; WM3619: 124; MEL-HO: 106; WM451Lu: 120; LB2518-MEL: 400; G-361: 220.

SNS-032 + AZD7762 gave IPC-298: 150; WM3619: 185; MEL-HO: 156; WM451Lu: 454; LB2518-MEL: 251; G-361: 85.0. With ABT-263 + AZD7762 the screen read IPC-298: 119; WM3619: 692; MEL-HO: 108; WM451Lu: 52.8; LB2518-MEL: 510; G-361: 182. Results for NVP-TAE684 + ABT-263 are IPC-298: 102; WM3619: 119; MEL-HO: 81.7; WM451Lu: 281; LB2518-MEL: 143; G-361: 234. For FH535 + ABT-263 the values were IPC-298: 747; WM3619: 117; MEL-HO: 424; WM451Lu: 1340; LB2518-MEL: 211; G-361: 570.

With OSI-906 + dorsomorphin the screen read IPC-298: 200; WM3619: 122; MEL-HO: 184; WM451Lu: 205; LB2518-MEL: 169; G-361: 73.7.

For reference, 2 entries once more:

{"pair": "OSI-906 + dorsomorphin", "IPC-298": 200, "WM3619": 122, "MEL-HO": 184, "WM451Lu": 205, "LB2518-MEL": 169, "G-361": 73.7}
{"pair": "OSI-906 + FH535", "IPC-298": 145, "WM3619": 165, "MEL-HO": 123, "WM451Lu": 225, "LB2518-MEL": 201, "G-361": 440}

Values as published with doi:10.1371/journal.pone.0140310, rounded.